Data reported in article PMC12431657, “Discovery and mechanistic insights of dibenzoylmethane as a broad spectrum inhibitor of coronavirus” (PLOS Pathogens, 2025).
Structures can show the parent of a compound that is named as a salt. Where two headings read alike, the source gives them in different places. About 95 (3%) of roughly 3,300 compounds showed an effect of 50% or more. The list shows a part of the results.

Tested on: HCoV-229E
Set-up: species or system Huh-7; HTS, protection from HCoV-229E induced cell death, luminescent cell viability (CellCounting-Lite 2.0), inhibition rate
Settings: 24 h post infection, 1 h compound pre-incubation, 10 µM, inhibitor

Structure (SMILES) | 229E Inhibition rate [%] | 229E Inhibition rate (229E Inhibition rate, 24 h) [%]
C=C1[C@H]2C[C@@]3([C@@H]1O)[C@@H](CC2=O)[C@]12[C@@H]4C[C@H]3[C@H]1N(CC)C[C@]4(C)CC[C@@H]2O [Songorine] | 6.3 | –
COC(=O)/C=C/C(C)=C\C=C\C(C)=C\C=C\C=C(C)\C=C\C=C(C)\C=C\C(=O)O [Bixin] | 3.1 | –
COc1cc(O)c2c(c1)O[C@H](c1cc(O)cc(O)c1)CC2=O [Blumeatin] | 0 | –
COc1ccc2c(c1)[nH]c1c(C)nccc12 [Harmine (hydrochloride)] | – | 16.8
CO[C@]1(CC[C@@H](C)CO[C@@H]2O[C@H](CO)[C@@H](O)[C@H](O)[C@H]2O)O[C@H]2C[C@H]3[C@@H]4CC=C5C[C@@H](O[C@@H]6O[C@H](CO)[C@@H](O[C@@H]7O[C@@H](C)[C@H](O)[C@@H](O)[C@H]7O)[C@H](O)[C@H]6O[C@@H]6O[C@@H](C)[C@H](O)[C@@H](O)[C@H]6O)CC[C@]5(C)[C@H]4CC[C@]3(C)[C@H]2[C@@H]1C [Methyl protodioscin] | 8.3 | –
OC[C@H]1O[C@H](O)[C@H](O)[C@@H](O)[C@@H]1O [alpha-D-glucose] | 0 | –
O=C(O)C(O)Cc1ccccc1 (racemic) [DL-3-Phenyllactic acid] | 22.4 | –
O=C(O)C(CO)c1ccccc1 (stereo not drawn) [Tropic acid] | 0 | –
CSSSC [Dimethyl trisulfide] | 0 | –
C[C@H](O)[C@@H](O)[C@@H](O)[C@H](O)CO [L-Fucitol] | 12.8 | –
CC(C)=CCc1c(O)ccc2ccc(=O)oc12 [Osthenol] | 14.9 | –
C[C@@H]1O[C@@H](O[C@H]2[C@H](Oc3cc(O)c4c(=O)cc(-c5ccc(O)cc5)oc4c3)O[C@H](CO)[C@@H](O)[C@@H]2O)[C@H](O)[C@H](O)[C@H]1O [Rhoifolin] | 21 | –
CCCCCC[C@@H](O)C/C=C\CCCCCCCC(=O)O [Ricinoleic acid] | 14.7 | –
COc1cc(-c2oc3cc(O)cc(O)c3c(=O)c2O[C@@H]2O[C@H](CO)[C@@H](O)[C@H](O)[C@H]2O[C@@H]2O[C@@H](C)[C@H](O)[C@@H](O)[C@H]2O)ccc1O [Isorhamnetin-3-O-neohespeidoside] | 0 | –
O=c1c(O[C@@H]2O[C@H](CO)[C@@H](O)[C@H](O)[C@H]2O)c(-c2ccc(O)cc2)oc2cc(O)cc(O)c12 [Astragalin] | 34.6 | –
O=C(O[C@H]1[C@H](Oc2c(-c3ccc(O)c(O)c3)oc3cc(O)cc(O)c3c2=O)O[C@H](CO)[C@H](O)[C@@H]1O)c1cc(O)c(O)c(O)c1 [2"-O-Galloylhyperin] | 10 | –
O=C(CCc1ccccc1)C[C@@H](O)/C=C/c1ccccc1 [(5R,6E)-5-Hydroxy-1,7-diphenyl-6-hepten-3-one] | 37.1 | –
O=C(O)CNC(=O)Cc1ccccc1 [2-(2-Phenylacetamido)acetic acid] | 20.4 | –
COc1cc(-c2cc(=O)c3c(O)cc(O)cc3o2)cc(OC)c1O [Tricin] | 25.9 | –
C=C1C(=O)O[C@@H]2/C=C(\C)[C@@H](OC(C)=O)C/C=C(\COC(C)=O)C[C@@H](OC(=O)/C(C)=C/CO)[C@@H]12 [Eupalinolide B] | – | 34.9

Structure (SMILES) | 229E Inhibition rate [%] | 229E Inhibition rate (229E Inhibition rate, 24 h) [%]
CO[C@@H]1O[C@H](CO)[C@H](O)[C@H](O)[C@H]1O [Methyl β-D-Galactopyranoside] | 9.6 | –
COC(=O)C1=CC[C@@]23CC[C@@H]([C@@](C)(/C=C/C=C(\C)C(=O)O)OC2=O)[C@@]3(OC(C)=O)CC1 [Pseudolaric Acid B] | 16.3 | –
CN1C(=O)/C(=C2/C(=O)Nc3ccccc32)c2ccccc21 [Meisoindigo] | 20 | –
CC1(C)[C@H](O)CC[C@@]2(C)[C@@H]3CC[C@](C)([C@@H](O)CO[C@@H]4O[C@H](CO)[C@@H](O)[C@H](O)[C@H]4O)C=C3CC[C@H]12 [Darutoside] | 8.8 | –
C=C1C[C@@]23CC[C@H]4[C@@](C)(CCC[C@@]4(C)C(=O)O)[C@@H]2CC[C@]1(O[C@@H]1O[C@H](CO)[C@@H](O)[C@H](O[C@@H]2O[C@H](CO)[C@@H](O)[C@H](O)[C@H]2O)[C@H]1O[C@@H]1O[C@H](CO)[C@@H](O)[C@H](O)[C@H]1O)C3 [Rebaudioside B] | 36.9 | –
Cc1nc(C)c(C)nc1C [Ligustrazine] | – | 16
Oc1ccc(C2COc3cc(O)ccc3C2)cc1 (racemic) [(±)-Equol] | 11 | –
C[C@H](CC(=O)C[C@](C)(O)[C@@H]1CC(=O)[C@@]2(C)C3=C(C(=O)C[C@]12C)[C@@]1(C)CC[C@H](O)C(C)(C)[C@@H]1C[C@@H]3O)C(=O)O [Ganoderic acid I] | 10.4 | –
C[C@H](CCC(=O)NCCS(=O)(=O)O)[C@H]1CC[C@H]2[C@@H]3[C@H](O)C[C@@H]4C[C@H](O)CC[C@]4(C)[C@H]3CC[C@]12C [Taurochenodeoxycholic acid] | – | 11
Cc1cnc(C)c(C)n1 [2,3,5-Trimethylpyrazine] | 6.9 | –
CC(=O)c1ccc(C)cc1O [2'-Hydroxy-4'-methylacetophenone] | 4.8 | –
c1ccc2c(c1)CCO2 [Coumaran] | 17.6 | –
Cc1ccccc1C=O [2-Methylbenzaldehyde] | 0 | –
COc1cc(O)c(CC=C(C)C)c2c1C(=O)C[C@@H](c1ccc(O)cc1)O2 [(2S)-Isoxanthohumol] | 35.3 | –
O=C(OC1O[C@@H]2COC(=O)c3cc(O)c(O)c(O)c3-c3c(cc(O)c(O)c3O)C(=O)O[C@H]2[C@H](OC(=O)c2cc(O)c(O)c(O)c2)[C@H]1OC(=O)c1cc(O)c(O)c(O)c1)c1cc(O)c(O)c(O)c1 (stereo partly drawn) [Tellimagrandin II] | 17.3 | –
O=P(O)(O)OC[C@H](O)CO [sn-Glycerol 3-phosphate] | 9 | –
Cc1cnc(C)cn1 [2,5-Dimethylpyrazine] | 5.1 | –
O=C1CCC[C@@H]2[C@H]3CCCN4CCC[C@H](CN12)[C@@H]34 [Sophoridine] | 0 | –
COc1c2c(cc3oc(CO[C@@H]4O[C@H](CO)[C@@H](O)[C@H](O)[C@H]4O)cc(=O)c13)O[C@H](C(C)(C)O)C2 [Prim-O-glucosylcimifugin] | 0 | –
CC(=O)O[C@]1(C(C)=O)CC[C@H]2[C@@H]3C[C@H](C)C4=CC(=O)CC[C@]4(C)[C@H]3CC[C@@]21C [Medroxyprogesterone acetate] | 15.8 | –

A section from further up, as a working copy:
Structure (SMILES) | 229E Inhibition rate [%] | 229E Inhibition rate (229E Inhibition rate, 24 h) [%]
CC1(C)[C@H](O)CC[C@@]2(C)[C@@H]3CC[C@](C)([C@@H](O)CO[C@@H]4O[C@H](CO)[C@@H](O)[C@H](O)[C@H]4O)C=C3CC[C@H]12 [Darutoside] | 8.8 | –
C=C1C[C@@]23CC[C@H]4[C@@](C)(CCC[C@@]4(C)C(=O)O)[C@@H]2CC[C@]1(O[C@@H]1O[C@H](CO)[C@@H](O)[C@H](O[C@@H]2O[C@H](CO)[C@@H](O)[C@H](O)[C@H]2O)[C@H]1O[C@@H]1O[C@H](CO)[C@@H](O)[C@H](O)[C@H]1O)C3 [Rebaudioside B] | 36.9 | –

The list continues:

Structure (SMILES) | 229E Inhibition rate [%] | 229E Inhibition rate (229E Inhibition rate, 24 h) [%]
N[C@@H](Cc1ccccc1)C(=O)O [L-Phenylalanine] | 10 | –
O=c1cc(-c2ccc(O)cc2)oc2c([C@@H]3O[C@H](CO)[C@@H](O)[C@H](O)[C@H]3O)c(O)c([C@@H]3OC[C@H](O)[C@H](O)[C@H]3O)c(O)c12 [Isoschaftoside] | 20.6 | –
NCC(=O)NCC(=O)O [Glycylglycine] | 13.5 | –
C/C=C/c1ccc(OC)cc1 [Anethole] | – | 16.8
O=C(O)/C=C/c1ccc(O)cc1 [p-Coumaric acid] | 42.5 | –
COC1=C(OC)C(=O)C(C/C=C(\C)CC/C=C(\C)CC/C=C(\C)CC/C=C(\C)CC/C=C(\C)CC/C=C(\C)CC/C=C(\C)CC/C=C(\C)CCC=C(C)C)=C(C)C1=O [Coenzyme Q9] | 8.7 | –
C=C(C)[C@H](CC=C(C)C)Cc1c(O)cc(OC)c2c1O[C@H](c1ccc(O)cc1O)[C@@H](O)C2=O [Kushenol I] | 6.5 | –
COc1cc(O)c2c(=O)cc(-c3ccc(OC)c(OC)c3)oc2c1 [7,3',4'-Tri-O-methylluteolin] | 8 | –
C=C[C@H]1[C@H](O[C@@H]2O[C@H](CO)[C@@H](O)[C@H](O)[C@H]2O)OC=C(C(=O)OC)[C@H]1CC(=O)O [Secoxyloganin] | 44.3 | –
C/C(=C/C(=O)O)C(=O)O [Citraconic acid] | 34.6 | –
Oc1cc(O)c2c(c1)O[C@@H](c1ccc(O)c(O)c1)[C@H](O)C2 [(-)-Catechin] | 19.1 | –
C[C@@]12C[C@H](c3ccoc3)O[C@@]13C[C@H](OC3=O)[C@H]1[C@H]2C[C@@H]2C[C@H]1C(=O)O2 [Diosbulbin B] | 10 | –
COc1cc([C@@H]2c3cc4c(cc3[C@@H](O[C@@H]3O[C@@H]5CO[C@@H](C)O[C@H]5[C@H](O)[C@H]3O)[C@H]3COC(=O)[C@H]23)OCO4)cc(OC)c1O [Etoposide] | 10.3 | –
C[C@@H]1O[C@@H](OC[C@H]2O[C@@H](Oc3c(-c4ccc(O)c(O)c4)oc4cc(O)cc(O)c4c3=O)[C@H](O)[C@@H](O)[C@@H]2O)[C@H](O)[C@H](O)[C@H]1O [Rutin] | – | 21.7
NC(CCS)C(=O)O (racemic) [DL-Homocysteine] | 9.4 | –
N[C@@H](Cc1c[nH]c2ccc(O)cc12)C(=O)O [5-Hydroxytryptophan] | – | 13.7
O=c1c(-c2ccc(O)cc2)coc2cc(O[C@@H]3O[C@H](CO)[C@@H](O)[C@H](O)[C@H]3O)ccc12 [Daidzin] | 20 | –
C=C1CC[C@@H]2[C@](C)(CO)[C@H](O)CC[C@@]2(C)[C@H]1C/C=C1\C=COC1=O [Dehydroandrographolide] | 6.5 | –
NC(=O)NCCCC(N)C(=O)O (stereo not drawn) [2-Amino-5-ureidopentanoic acid] | 11.5 | –
O=C(O)CC(C(=O)O)C(O)C(=O)O (racemic) [DL-Isocitric acid (trisodium salt)] | 13.8 | –
